These are yes or no findings as the source states them, for the method shown. In cells and extracts the contact can be indirect. Some binding calls cover weakened binding; strength is not graded here.
B1: DGCR8 (protein, UniProt Q8WYQ5 1-773)
chain: METDESPSPLPCGPAGEAVMESRARPFQALPREQSPPPPLQTSSGAEVMDVGSGGDGQSELPAEDPFNFYGASLLSKGSFSKGRLLIDPNCSGHSPRTARHAPAVRKFSPDLKLLKDVKISVSFTESCRSKDRKVLYTGAERDVRAECGLLLSPVSGDVHACPFGGSVGDGVGIGGESADKKDEENELDQEKRVEYAVLDELEDFTDNLELDEEGAGGFTAKAIVQRDRVDEEALNFPYEDDFDNDVDALLEEGLCAPKKRRTEEKYGGDSDHPSDGETSVQPMMTKIKTVLKSRGRPPTEPLPDGWIMTFHNSGVPVYLHRESRVVTWSRPYFLGTGSIRKHDPPLSSIPCLHYKKMKDNEEREQSSDLTPSGDVSPVKPLSRSAELEFPLDEPDSMGADPGPPDEKDPLGAEAAPGALGQVKAKVEVCKDESVDLEEFRSYLEKRFDFEQVTVKKFRTWAERRQFNREMKRKQAESERPILPANQKLITLSVQDAPTKKEFVINPNGKSEVCILHEYMQRVLKVRPVYNFFECENPSEPFGASVTIDGVTYGSGTASSKKLAKNKAARATLEILIPDFVKQTSEEKPKDSEELEYFNHISIEDSRVYELTSKAGLLSPYQILHECLKRNHGMGDTSIKFEVVPGKNQKSEYVMACGKHTVRGWCKNKRVGKQLASQKILQLLHPHVKNWGSLLRMYGRESSKMVKQETSDKSVIELQQYAKKNKPNLHILSKLQEEMKRLAEEREETRKKPKMSIVASAQPGGEPLCTVDV

The chains behind the UniProt entries cited, without tags or fusion partners.
UniProt P19338: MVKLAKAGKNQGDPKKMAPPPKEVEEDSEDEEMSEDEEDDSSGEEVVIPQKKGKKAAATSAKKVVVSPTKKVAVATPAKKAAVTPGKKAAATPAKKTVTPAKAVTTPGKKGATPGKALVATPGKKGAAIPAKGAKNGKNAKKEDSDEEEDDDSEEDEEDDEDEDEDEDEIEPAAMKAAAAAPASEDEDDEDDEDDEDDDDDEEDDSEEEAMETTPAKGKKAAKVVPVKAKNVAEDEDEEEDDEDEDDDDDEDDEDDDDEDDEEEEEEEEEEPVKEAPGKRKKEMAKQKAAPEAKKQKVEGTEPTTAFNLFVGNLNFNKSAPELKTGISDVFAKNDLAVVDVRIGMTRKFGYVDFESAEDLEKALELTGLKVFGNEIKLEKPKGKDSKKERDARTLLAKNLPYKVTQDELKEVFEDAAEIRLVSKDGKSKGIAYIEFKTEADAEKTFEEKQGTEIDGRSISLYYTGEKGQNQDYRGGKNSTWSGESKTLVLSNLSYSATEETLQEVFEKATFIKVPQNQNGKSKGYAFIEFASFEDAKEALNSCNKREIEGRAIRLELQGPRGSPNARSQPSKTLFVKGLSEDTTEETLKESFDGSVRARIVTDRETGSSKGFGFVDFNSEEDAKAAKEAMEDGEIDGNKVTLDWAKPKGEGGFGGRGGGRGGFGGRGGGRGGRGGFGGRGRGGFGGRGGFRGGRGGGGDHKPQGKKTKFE
UniProt Q9UKV8: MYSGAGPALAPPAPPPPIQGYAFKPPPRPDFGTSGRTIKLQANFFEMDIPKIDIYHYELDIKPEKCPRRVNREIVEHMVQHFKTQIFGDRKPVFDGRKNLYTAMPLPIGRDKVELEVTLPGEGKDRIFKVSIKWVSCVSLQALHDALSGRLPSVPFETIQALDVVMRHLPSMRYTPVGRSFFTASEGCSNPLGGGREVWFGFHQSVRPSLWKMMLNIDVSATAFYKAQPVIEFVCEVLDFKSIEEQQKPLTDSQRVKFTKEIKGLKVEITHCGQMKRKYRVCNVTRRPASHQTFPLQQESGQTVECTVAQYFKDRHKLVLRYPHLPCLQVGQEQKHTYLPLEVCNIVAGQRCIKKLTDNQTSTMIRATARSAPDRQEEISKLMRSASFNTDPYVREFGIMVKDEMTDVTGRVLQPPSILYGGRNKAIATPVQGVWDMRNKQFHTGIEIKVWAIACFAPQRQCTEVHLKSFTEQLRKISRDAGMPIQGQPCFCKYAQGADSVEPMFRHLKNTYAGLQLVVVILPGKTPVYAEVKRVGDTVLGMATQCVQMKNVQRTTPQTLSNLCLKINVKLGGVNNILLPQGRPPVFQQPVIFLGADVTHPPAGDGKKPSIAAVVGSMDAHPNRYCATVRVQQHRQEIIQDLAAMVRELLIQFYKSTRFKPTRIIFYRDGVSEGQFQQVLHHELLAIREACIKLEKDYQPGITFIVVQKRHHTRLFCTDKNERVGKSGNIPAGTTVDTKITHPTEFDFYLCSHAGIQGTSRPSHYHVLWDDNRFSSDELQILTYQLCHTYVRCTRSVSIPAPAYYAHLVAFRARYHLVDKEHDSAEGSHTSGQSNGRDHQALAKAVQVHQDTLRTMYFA

Target: nucleolin (NCL) (human (endogenous in PASMCs)) (UniProt P19338)
Test: co-IP; endogenous proteins in PASMC lysate (20 mM Tris-HCl pH 7.5, 100 mM KCl, 5 mM MgCl2, 0.5% NP-40), precleared; Dynabeads Protein G coated with anti-NCL antibody or rabbit IgG, and conversely with anti-DGCR8 or anti-Ago2 antibody or mouse IgG, 4 °C overnight; washed with NT2 buffer (150 mM NaCl); immunoblot

Molecule	binding
Ago2 (from UniProt Q9UKV8 1-859)	binds
B1	binds
